Results are given in words; binding and its absence hold for the method and conditions named. Binding seen in cells or lysates may run through a third protein. These calls come from enrichment with a bait or labelling near it, and not all partners need be listed.
Target: GST fused to the WT cytosolic tail of APP (649-695) (UniProt P05067)
Assay: affinity purification with mass spectrometry; GST-APP tail (or GST only) on glutathione-Sepharose beads, incubated overnight at 4 °C with pre-cleared HEK293T lysate in 50 mM Tris pH 7.4, 150 mM NaCl, 1 mM EDTA, 5 mM 2-mercaptoethanol, 1% triton-X100; eluted with […] NaCl; LC-MS/MS; three independent experiments; only the target purified

Protein sequences, listed by entry. Tags and fused reporters are not part of them. Residues count along the entry.
UniProt P05067, residues 724-770: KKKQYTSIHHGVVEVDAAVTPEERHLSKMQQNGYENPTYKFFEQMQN

B1: cold-inducible RNA-binding protein (CIRBP) (protein, UniProt Q14011 1-172)
chain: MASDEGKLFVGGLSFDTNEQSLEQVFSKYGQISEVVVVKDRETQRSRGFGFVTFENIDDAKDAMMAMNGKSVDGRQIRVDQAGKSSDNRSRGYRGGSAGGRGFFRGGRGRGRGFSRGGGDRGYGGNRFESRSGGYGGSRDYYSSRSQSGGYSDRSSGGSYRDSYDSYATHNE
  binding: binds
